Results: patent US12146134B2, “Microfluidic devices and methods of use in the formation and control of nanoreactors” (Bio-Rad Laboratories, Inc., priority 2006, dated 2024)
At least one structure is not confirmed: it was looked up by name or label, or the drawing left a doubt.

Sequences of proteins named here, by UniProt entry; tags and fusion partners are left off. Residues count along the entry.
UniProt P22629, 25-183: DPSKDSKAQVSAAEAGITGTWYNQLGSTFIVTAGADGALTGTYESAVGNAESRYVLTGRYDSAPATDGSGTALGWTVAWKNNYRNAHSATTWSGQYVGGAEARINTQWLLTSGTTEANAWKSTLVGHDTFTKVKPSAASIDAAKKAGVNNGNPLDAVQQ

Target: Steptaviden (Streptomyces avidinii, UniProt P22629)
Experiment: fluorescence polarization measurements in droplets inside the microfluidic device (biotin/streptavidin binding)
Settings: droplets 65 to 75 um, 10 mM Borate pH 9, data normalized so P(Fluorescein)=0.0
Excerpt: In addition to molecular beacons and Taqman, the devices of the present invention can be used to cany out fluorescence polarization as described herein. Most SNP assays can be adapted for both mini-sequencing and gene expression analysis. A series of fluorescence polarization measurements have been made inside a microfluidic device according to the present invention while looking at droplets containing Fluorescein, Fluorescein bound to biotin, and Fluorescein bound to biotin+Steptaviden. The fluorescence signal was split into two orthogonal polarizations: one parallel to the laser excitation polarization, and one perpendicular to the polarization. These signal were collected and analyzed to determine the change in polarization of the fluorescence for each of these binding conditions.
The Polarization is calculated from:
[formula] Where V=fluorescence signal polarized parallel to laser excitation polarization, and H=fluorescence signal polarized perpendicular.
The fluorescence station was modified to include cleanup polarizer for the laser and a polarizing beamsplitter with cleanup polarizers for collection. The two resulting fluorescence channels collect light with orthogonal polarizations (“Vertical” is parallel to the laser polarization, “Horizontal” is perpendicular to the laser polarization). […]

O=C1OC2(c3ccc(O)cc3Oc3cc(O)ccc32)c2ccccc21 [Fluorescein]
Polarization (mean of histogram grouping): zero
